Record: PubChem BioAssay AID743121 (NCATS, 2013)

Aim: 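Genes whose silencing strengthens cell killing by camptothecin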 (primary screen)
Cell system: MDA-MB-231 cells, a human breast cancer line
Reagents: single siRNA against human genes, 20 nM siRNA (0.8 pmol per well)
Timing: 120 h (drug added 48 h after transfection, read 72 h later)
Conditions: camptothecin 20 nM (about EC30) for 72 h; vehicle 0.1% DMSO in parallel plates
Detection: 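CellTiter-Glo ATP signal, scaled to control siRNA as percent viability; sensitisation given as log2 of untreated divided by camptothecin-treated viability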
Scale: log2 vehicle/camptothecin viability: higher = stronger sensitisation to camptothecin
Active means: 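Active genes have an RSA gene-level p-value below 0.001, computed from the ratios of their separate siRNAs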
Here is one part, drawn at random, of about 26,000 reagents. 167 of all reagents (0.63%) were called active. 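Calls are per gene from RSA p-values that are not deposited; an individual active-marked siRNA can sensitise only weakly.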 Not all columns of the deposit are shown.

What did the screen give for NR5A1 (nuclear receptor subfamily 5 group A member 1) [SID164365463]?
log2 vehicle/camptothecin viability: -0.0742; call: inactive

Which result is listed for NR5A1 (nuclear receptor subfamily 5 group A member 1) [SID164365464]?
log2 vehicle/camptothecin viability: -0.548; call: inactive

How did the screen score NR5A1 (nuclear receptor subfamily 5 group A member 1) [SID164365466]?
log2 vehicle/camptothecin viability: -0.835; call: inactive

With NR5A1 (nuclear receptor subfamily 5 group A member 1) [SID164365467], what does the deposit list?
log2 vehicle/camptothecin viability: -0.0683; call: inactive

For RGS2 (regulator of G protein signaling 2) [SID164385263], what does the deposit list?
log2 vehicle/camptothecin viability: -0.00195; call: inactive

For RGS2 (regulator of G protein signaling 2) [SID164385264], how do the results read?
log2 vehicle/camptothecin viability: -0.0107; call: inactive

What is on record for RGS2 (regulator of G protein signaling 2) [SID164385267]?
log2 vehicle/camptothecin viability: 0.0764; call: inactive

How did the screen score INHBA (inhibin subunit beta A) [SID164371610]?
log2 vehicle/camptothecin viability: 0.121; call: inactive

For INHBA (inhibin subunit beta A) [SID164371611], what does the deposit list?
log2 vehicle/camptothecin viability: -0.245; call: inactive

For INHBA (inhibin subunit beta A) [SID164371613], what was measured?
log2 vehicle/camptothecin viability: -0.255; call: inactive

With INHBA (inhibin subunit beta A) [SID164371614], what does the deposit list?
log2 vehicle/camptothecin viability: 0.035; call: inactive

Which result is listed for SPHK1 (sphingosine kinase 1) [SID164400450]?
log2 vehicle/camptothecin viability: 0.129; call: inactive

Which result is listed for SPHK1 (sphingosine kinase 1) [SID164400453]?
log2 vehicle/camptothecin viability: -0.209; call: inactive

What is on record for SPHK1 (sphingosine kinase 1) [SID164400455]?
log2 vehicle/camptothecin viability: -0.399; call: inactive

What did the screen give for SPHK1 (sphingosine kinase 1) [SID164400458]?
log2 vehicle/camptothecin viability: 0.197; call: inactive

In a second layout: results already given.
RGS2 (regulator of G protein signaling 2) [SID164385267]
- log2 vehicle/camptothecin viability: 0.0764
- call: inactive

INHBA (inhibin subunit beta A) [SID164371610]
- log2 vehicle/camptothecin viability: 0.121
- call: inactive
